These results are taken from PMC8998617.

Sequences of proteins named here, by UniProt entry; tags and fusion partners are left off. Residues count along the entry.
UniProt P52948, residues 1-498: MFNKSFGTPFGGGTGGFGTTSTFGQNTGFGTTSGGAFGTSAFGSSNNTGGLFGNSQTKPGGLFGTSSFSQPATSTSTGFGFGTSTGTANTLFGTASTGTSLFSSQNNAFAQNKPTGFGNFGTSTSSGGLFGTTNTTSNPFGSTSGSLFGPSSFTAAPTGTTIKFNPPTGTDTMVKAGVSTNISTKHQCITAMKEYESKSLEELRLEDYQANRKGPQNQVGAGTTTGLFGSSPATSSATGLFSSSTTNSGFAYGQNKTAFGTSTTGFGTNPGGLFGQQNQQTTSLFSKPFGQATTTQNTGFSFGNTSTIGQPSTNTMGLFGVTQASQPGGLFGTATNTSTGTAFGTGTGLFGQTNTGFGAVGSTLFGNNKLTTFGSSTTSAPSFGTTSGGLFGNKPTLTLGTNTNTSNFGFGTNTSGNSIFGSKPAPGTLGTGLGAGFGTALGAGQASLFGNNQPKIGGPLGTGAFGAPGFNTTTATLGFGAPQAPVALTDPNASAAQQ
UniProt P02769, residues 25-607: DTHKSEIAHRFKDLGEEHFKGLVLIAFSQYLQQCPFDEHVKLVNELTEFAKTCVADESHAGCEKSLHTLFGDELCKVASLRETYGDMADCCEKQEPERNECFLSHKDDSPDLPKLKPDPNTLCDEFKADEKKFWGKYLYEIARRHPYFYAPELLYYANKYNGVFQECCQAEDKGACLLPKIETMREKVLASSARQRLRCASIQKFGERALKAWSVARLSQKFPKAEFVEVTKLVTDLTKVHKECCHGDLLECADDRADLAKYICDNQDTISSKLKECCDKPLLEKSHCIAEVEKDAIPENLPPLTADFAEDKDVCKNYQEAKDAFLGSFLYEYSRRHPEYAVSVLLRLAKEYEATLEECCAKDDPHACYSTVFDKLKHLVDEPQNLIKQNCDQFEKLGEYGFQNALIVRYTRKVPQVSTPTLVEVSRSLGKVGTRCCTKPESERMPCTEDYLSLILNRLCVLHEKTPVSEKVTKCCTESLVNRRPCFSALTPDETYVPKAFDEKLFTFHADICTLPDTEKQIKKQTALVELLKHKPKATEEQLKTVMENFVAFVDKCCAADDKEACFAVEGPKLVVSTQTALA

These are yes or no findings as the source states them, for the method shown.

The target of the assay is Nup98-FG (N-terminal FG-domain of Nup98, aa 1-498) with one additional N-terminal cysteine, tethered to the SPR gold chip (UniProt P52948). Nature of the assay: SPR; Biacore T200; Nup98-FG or Nup98-FG/FS tethered by its N-terminal cysteine to the gold sensor chip; Tau proteins injected at increasing concentrations in PBS; BSA injected after each Tau injection; equilibrium constants from one- or two-component Langmuir fits; both purified. A general note: Surface plasmon resonance follows binding to a sensor surface in real time, without labels.

Turning to “bovine serum albumin (BSA) (from UniProt P02769 25-607)”, the binding result is “no binding”.
